In the supplement of paper PMC10849652:
Some of the results follow.

Chains of the proteins cited; added tags and fusions are not shown. Lines headed by an entry give the natural chain unless they say otherwise; changes in a name come on top.
UniProt Q969X1: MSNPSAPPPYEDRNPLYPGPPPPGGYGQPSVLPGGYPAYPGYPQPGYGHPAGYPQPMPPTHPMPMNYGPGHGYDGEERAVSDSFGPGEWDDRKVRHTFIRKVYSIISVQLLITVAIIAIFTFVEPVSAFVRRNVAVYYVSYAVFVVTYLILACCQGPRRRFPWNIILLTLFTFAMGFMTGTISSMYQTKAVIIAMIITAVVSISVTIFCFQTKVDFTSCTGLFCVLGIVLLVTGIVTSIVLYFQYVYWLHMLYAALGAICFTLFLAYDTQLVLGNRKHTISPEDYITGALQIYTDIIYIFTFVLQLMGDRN
UniProt Q9NPL8: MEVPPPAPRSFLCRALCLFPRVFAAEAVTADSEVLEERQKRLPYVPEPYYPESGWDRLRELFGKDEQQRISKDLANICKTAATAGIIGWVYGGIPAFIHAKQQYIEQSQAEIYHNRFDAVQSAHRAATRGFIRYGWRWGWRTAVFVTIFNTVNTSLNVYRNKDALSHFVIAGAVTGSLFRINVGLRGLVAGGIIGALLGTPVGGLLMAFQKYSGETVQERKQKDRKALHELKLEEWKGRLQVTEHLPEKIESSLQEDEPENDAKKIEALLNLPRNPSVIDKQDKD
UniProt O14925: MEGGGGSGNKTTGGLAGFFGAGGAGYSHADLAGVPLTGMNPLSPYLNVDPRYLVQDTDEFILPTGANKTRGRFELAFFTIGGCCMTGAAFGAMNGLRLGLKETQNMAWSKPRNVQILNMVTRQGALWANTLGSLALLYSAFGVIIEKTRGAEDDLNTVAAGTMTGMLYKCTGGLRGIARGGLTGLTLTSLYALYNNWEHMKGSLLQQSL
UniProt Q9H7F4: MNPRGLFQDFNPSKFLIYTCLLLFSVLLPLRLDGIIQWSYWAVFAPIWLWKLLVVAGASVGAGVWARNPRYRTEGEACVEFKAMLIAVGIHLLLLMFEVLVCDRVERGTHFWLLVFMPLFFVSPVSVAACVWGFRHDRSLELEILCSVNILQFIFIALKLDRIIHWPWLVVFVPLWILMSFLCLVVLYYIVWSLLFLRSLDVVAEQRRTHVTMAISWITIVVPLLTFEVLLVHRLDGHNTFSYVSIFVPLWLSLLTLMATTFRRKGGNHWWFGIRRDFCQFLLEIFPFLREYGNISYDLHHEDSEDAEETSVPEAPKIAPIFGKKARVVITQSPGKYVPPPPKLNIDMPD
UniProt Q92544: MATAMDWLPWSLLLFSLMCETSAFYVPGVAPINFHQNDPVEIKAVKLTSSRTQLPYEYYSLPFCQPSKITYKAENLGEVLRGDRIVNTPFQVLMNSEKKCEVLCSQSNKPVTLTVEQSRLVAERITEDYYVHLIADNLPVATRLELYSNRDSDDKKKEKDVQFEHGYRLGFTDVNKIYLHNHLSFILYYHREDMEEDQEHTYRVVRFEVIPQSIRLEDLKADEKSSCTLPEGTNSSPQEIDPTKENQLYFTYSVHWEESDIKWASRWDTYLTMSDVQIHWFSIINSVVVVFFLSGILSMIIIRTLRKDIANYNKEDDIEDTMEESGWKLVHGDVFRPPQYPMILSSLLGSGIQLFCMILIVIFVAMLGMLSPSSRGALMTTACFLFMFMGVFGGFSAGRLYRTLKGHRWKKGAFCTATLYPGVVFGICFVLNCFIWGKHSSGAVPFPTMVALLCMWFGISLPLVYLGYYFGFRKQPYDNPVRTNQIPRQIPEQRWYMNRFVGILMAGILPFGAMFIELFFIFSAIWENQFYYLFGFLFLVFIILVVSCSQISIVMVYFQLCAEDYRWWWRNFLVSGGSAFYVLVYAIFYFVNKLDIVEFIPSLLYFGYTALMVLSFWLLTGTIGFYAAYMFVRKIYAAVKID
UniProt Q9H0V1: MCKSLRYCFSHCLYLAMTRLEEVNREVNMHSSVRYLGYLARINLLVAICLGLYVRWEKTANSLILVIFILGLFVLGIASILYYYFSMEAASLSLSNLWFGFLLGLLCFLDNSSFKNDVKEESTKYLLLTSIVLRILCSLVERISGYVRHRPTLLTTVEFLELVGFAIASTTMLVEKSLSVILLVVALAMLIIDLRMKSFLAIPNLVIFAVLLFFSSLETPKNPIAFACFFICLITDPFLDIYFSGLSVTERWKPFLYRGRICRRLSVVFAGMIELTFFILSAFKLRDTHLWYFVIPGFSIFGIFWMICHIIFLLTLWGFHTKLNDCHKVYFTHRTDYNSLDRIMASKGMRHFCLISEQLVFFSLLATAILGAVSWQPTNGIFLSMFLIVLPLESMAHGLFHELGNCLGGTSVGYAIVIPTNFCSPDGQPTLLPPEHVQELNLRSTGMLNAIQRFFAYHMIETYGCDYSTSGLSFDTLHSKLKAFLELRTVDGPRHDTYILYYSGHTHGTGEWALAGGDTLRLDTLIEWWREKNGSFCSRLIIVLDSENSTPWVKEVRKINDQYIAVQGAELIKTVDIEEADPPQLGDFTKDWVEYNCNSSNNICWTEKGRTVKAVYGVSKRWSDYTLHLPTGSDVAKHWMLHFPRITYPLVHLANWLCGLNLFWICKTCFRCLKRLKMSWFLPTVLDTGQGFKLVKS
UniProt Q8IYQ7: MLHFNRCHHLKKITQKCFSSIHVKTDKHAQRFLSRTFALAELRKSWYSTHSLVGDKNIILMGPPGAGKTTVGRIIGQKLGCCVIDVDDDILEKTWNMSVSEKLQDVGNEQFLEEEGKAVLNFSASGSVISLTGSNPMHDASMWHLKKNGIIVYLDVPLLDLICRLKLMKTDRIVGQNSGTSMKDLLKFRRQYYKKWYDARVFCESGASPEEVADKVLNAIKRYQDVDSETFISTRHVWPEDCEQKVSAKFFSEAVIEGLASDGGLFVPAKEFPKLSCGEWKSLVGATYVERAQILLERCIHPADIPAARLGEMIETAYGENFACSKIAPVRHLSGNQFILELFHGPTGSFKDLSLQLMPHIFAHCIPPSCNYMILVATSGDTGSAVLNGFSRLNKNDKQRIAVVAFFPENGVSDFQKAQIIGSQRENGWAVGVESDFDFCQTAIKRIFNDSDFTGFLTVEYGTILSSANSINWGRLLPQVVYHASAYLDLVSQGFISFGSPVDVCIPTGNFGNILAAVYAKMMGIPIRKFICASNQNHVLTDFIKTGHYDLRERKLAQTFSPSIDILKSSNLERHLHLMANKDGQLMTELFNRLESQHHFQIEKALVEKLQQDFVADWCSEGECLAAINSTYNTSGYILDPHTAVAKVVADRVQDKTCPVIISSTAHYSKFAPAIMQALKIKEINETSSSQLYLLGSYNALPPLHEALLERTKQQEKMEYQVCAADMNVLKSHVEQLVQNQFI
UniProt P52888, whole entry, looked up: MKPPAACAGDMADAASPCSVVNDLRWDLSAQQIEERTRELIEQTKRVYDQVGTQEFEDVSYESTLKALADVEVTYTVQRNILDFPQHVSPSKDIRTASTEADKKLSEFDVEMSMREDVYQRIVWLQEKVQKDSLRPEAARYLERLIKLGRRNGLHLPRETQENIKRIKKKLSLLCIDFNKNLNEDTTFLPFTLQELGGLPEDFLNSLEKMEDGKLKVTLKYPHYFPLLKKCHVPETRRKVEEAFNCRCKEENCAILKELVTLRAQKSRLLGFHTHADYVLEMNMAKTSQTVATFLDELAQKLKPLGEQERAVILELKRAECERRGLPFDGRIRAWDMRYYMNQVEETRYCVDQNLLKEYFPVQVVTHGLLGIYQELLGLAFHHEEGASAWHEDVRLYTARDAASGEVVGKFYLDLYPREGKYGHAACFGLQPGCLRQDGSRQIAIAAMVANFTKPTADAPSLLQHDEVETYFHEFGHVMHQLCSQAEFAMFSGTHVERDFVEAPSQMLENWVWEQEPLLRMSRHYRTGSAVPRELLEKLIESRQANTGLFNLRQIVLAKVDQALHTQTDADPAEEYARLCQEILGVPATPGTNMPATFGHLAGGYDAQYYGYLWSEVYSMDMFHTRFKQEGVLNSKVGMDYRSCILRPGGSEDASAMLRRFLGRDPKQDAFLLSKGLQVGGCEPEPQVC
UniProt Q9BVC6: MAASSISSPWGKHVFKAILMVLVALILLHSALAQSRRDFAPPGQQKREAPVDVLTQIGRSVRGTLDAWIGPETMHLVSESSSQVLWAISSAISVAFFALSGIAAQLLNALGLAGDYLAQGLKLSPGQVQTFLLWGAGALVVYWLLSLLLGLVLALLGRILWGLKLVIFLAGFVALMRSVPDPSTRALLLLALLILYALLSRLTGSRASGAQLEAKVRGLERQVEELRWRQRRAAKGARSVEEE
UniProt Q96RS0: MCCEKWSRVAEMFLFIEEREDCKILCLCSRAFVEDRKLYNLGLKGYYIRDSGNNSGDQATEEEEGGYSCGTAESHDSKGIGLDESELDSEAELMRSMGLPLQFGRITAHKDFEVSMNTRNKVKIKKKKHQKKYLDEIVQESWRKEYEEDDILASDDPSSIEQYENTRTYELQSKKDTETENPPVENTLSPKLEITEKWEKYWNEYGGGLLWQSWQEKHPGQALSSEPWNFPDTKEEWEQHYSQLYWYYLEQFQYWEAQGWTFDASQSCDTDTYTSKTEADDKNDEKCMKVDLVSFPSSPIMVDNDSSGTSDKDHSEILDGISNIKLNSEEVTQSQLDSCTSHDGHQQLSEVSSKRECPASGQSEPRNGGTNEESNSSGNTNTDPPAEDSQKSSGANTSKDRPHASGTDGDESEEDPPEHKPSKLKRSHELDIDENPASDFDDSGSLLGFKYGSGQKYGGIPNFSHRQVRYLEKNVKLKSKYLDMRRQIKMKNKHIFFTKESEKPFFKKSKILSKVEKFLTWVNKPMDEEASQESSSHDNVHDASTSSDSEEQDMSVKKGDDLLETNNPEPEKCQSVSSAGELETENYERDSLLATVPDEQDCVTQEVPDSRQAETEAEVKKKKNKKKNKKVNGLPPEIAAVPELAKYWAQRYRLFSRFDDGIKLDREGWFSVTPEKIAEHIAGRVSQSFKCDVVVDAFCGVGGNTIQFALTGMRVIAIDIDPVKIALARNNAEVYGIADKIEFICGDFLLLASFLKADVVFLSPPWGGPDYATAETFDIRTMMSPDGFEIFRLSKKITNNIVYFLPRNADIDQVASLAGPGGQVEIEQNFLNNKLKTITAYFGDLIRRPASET
UniProt Q9H061: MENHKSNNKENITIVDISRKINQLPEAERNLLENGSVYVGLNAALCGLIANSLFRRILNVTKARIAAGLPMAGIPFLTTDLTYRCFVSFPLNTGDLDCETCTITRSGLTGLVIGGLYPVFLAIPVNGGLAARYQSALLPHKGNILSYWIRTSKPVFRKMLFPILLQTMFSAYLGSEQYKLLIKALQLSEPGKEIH
UniProt Q9Y3A6: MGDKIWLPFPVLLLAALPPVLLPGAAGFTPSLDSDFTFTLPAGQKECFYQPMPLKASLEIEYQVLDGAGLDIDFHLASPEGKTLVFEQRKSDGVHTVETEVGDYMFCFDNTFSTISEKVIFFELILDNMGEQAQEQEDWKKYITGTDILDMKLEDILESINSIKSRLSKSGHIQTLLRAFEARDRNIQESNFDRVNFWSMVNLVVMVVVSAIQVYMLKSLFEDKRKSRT
UniProt Q9Y2S6, whole entry, looked up: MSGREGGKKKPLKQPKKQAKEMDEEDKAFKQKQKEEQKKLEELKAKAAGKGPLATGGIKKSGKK
UniProt O75663: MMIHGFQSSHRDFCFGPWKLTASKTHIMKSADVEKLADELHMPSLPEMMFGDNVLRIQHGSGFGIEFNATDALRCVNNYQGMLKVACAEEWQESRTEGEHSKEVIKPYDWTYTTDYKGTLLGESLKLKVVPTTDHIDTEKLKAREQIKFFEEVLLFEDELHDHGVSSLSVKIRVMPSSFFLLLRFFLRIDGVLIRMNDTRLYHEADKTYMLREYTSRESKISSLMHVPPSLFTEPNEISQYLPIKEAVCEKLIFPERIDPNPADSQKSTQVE
UniProt Q6PL24: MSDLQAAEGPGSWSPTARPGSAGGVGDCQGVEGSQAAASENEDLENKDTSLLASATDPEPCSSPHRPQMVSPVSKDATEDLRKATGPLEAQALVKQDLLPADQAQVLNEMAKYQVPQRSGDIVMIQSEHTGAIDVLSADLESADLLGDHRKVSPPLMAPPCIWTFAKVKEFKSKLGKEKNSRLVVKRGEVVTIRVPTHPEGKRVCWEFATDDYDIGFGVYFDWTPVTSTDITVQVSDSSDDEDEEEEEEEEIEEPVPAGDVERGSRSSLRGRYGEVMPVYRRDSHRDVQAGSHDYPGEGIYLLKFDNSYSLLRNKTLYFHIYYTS
UniProt Q01085: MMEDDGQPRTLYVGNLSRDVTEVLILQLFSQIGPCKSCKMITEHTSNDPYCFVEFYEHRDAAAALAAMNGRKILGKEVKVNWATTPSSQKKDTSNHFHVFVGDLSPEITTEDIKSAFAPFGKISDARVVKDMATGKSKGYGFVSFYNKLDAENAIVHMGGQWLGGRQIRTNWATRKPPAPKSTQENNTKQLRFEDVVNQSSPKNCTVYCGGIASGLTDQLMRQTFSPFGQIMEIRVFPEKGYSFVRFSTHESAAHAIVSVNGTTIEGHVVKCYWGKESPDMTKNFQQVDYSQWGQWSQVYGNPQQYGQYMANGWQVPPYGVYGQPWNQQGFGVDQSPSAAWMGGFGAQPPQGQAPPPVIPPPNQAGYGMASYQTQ

What follows are targets tested with CN1CC[C@H](c2c(O)cc(O)c3c(=O)cc(-c4ccccc4Cl)oc23)[C@H](O)C1 [alvocidib] (assay: log2 fold change, soluble protein after heating vs DMSO (PISA); higher = thermal stabilisation; K562 lysate, 10 uM; active = over 0.2 and 3.5 SD of the protein, either way, in both replicates (recomputed)).
Summary of the method: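 Pellets of K562 cells were dounce-homogenised in PBS pH 7.4 with 1 mM MgCl2, and the crude extract was held at 1 mg/mL protein for a 30 min treatment with 10 μM compound. Aliquots were heated for 3 min over 48°C-58°C and pooled before NP-40 was added to 0.5% at 4°C. The supernatant from 21,000xg for 90 min was quantified by TMTpro 16plex LC-MS/MS with channel sums equalised. Values are reported from duplicates as log-two fold change in thermal stability relative to solvent controls.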

log2 fold change, inactive:
TICAM2 isoform 2 (UniProt Q86XR7) -0.006, THUMPD2 (UniProt Q9BTF0) 0.01, TMCO1 (UniProt Q9UM00) 0.072, TGOLN2 isoform 7 (UniProt O43493) -0.053, TMBIM1 (UniProt Q969X1) -0.072, TMEM120A (UniProt Q9BXJ8) 0.049, TIMMDC1 (UniProt Q9NPL8) 0.015, TIMM23 (UniProt O14925) -0.024, TJP2 isoform 7 (UniProt Q9UDY2) -0.019, TMEM185B (UniProt Q9H7F4) 0.097, TM9SF4 (UniProt Q92544) -0.021, TMEM168 (UniProt Q9H0V1) -0.031, TMEM164 (UniProt Q5U3C3) -0.393, THYN1 (UniProt Q9P016) 0.019, THNSL1 (UniProt Q8IYQ7) -0.018, TMBIM6 isoform 2 (UniProt P55061) 0.081, THOP1 (UniProt P52888) 0.004, TMCO6 isoform 2 (UniProt Q96DC7) -0.077, TMEM109 (UniProt Q9BVC6) 0.011, THOC5 (UniProt Q13769) -0.027, THOC1 (UniProt Q96FV9) -0.012, TLE4 isoform 3 (UniProt Q04727) -0.027, TGS1 (UniProt Q96RS0) -0.034, TIMM29 (UniProt Q9BSF4) -0.015, TLN2 (UniProt Q9Y4G6) -0.016, TMEM126A (UniProt Q9H061) 0.046, TMED5 (UniProt Q9Y3A6) -0.01, TMA7 (UniProt Q9Y2S6) -0.013, TIMM22 (UniProt Q9Y584) 0.023, TMEM161A (UniProt Q9NX61) -0.018, TIMM44 (UniProt O43615) 0.001, THEM4 (UniProt Q5T1C6) 0.029, TMED10 (UniProt P49755) 0.043, TMA16 (UniProt Q96EY4) -0.021, TIPRL (UniProt O75663) -0.026, TIMM17A (UniProt Q99595) -0.058, TIMM17B (UniProt O60830) -0.017, TIMM50 isoform 2 (UniProt Q3ZCQ8) 0.015, TMED8 (UniProt Q6PL24) -0.022, TIAL1 isoform 2 (UniProt Q01085) -0.005
